Measurements reported in PubChem BioAssay AID1259327 (Drosophila RNAi Screening Center, 2017).

Aim: 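Knock-downs altering cellular ATP with no metal added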
Cells: Drosophila S2R+ cells
Reagent: long dsRNA against Drosophila genes
Timing: 5 days (water added on day 4, read one day later)
Challenge: water added as vehicle, no metal, one day before read-out
Read-out: 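Total ATP measured by luciferase light, scaled to plate mean, duplicates averaged, then z-scored across plates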
Reading the numbers: ATP z-score: higher = more total ATP than typical wells; ATP luminescence: higher = more total ATP
Call rule: 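a hit is any knock-down whose absolute ATP z-score is greater than 1.5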
Meaning of the calls: active = hit: ATP up or down; inactive = no clear ATP change
In all, the deposit lists about 3,100 reagents; this is a random part of them. Over the whole deposit, 378 (12%) were called active. 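Hits include both directions; z-score sign shows ATP rise or fall; raw luminescence values are not plate-normalised.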 Entries without a mark were called inactive. A plus sign joins genes that one reagent is predicted to hit. The record does not give: the amount of reagent.

The first 9 entries, to show the layout:
predicted target	dsRNA	ATP z-score, duplicate mean	ATP luminescence, replicate 1 (RLU)	ATP luminescence, replicate 2 (RLU)
SERCA (Sarco/endoplasmic reticulum Ca(2+)-ATPase)	DRSC04600	0.0116	7.02e5	7.63e5
SERCA (Sarco/endoplasmic reticulum Ca(2+)-ATPase)	DRSC26195	-0.778	7.54e5	7.53e5
CG30048	DRSC22205	-0.793	4.85e5	5.40e5
CG30048	DRSC39886	3.47 (active)	9.40e5	8.14e5
Nup98-96 (Nucleoporin 98-96kD)	DRSC14209	-0.0634	7.33e5	6.66e5
Nup98-96 (Nucleoporin 98-96kD)	DRSC14210	-2.85 (active)	1.75e5	4.45e5
mAChR-C (muscarinic Acetylcholine Receptor, C-type)	DRSC17890	0.212	7.14e5	7.71e5
mAChR-C (muscarinic Acetylcholine Receptor, C-type)	DRSC27441	-1.2	9.35e5	9.40e5
CG13248	DRSC11696	-0.159	8.87e5	8.63e5

The list itself, from the first entry:
predicted target	dsRNA	ATP z-score, duplicate mean	ATP luminescence, replicate 1 (RLU)	ATP luminescence, replicate 2 (RLU)
SERCA (Sarco/endoplasmic reticulum Ca(2+)-ATPase)	DRSC04600	0.0116	7.02e5	7.63e5
SERCA (Sarco/endoplasmic reticulum Ca(2+)-ATPase)	DRSC26195	-0.778	7.54e5	7.53e5
CG30048	DRSC22205	-0.793	4.85e5	5.40e5
CG30048	DRSC39886	3.47 (active)	9.40e5	8.14e5
Nup98-96 (Nucleoporin 98-96kD)	DRSC14209	-0.0634	7.33e5	6.66e5
Nup98-96 (Nucleoporin 98-96kD)	DRSC14210	-2.85 (active)	1.75e5	4.45e5
mAChR-C (muscarinic Acetylcholine Receptor, C-type)	DRSC17890	0.212	7.14e5	7.71e5
mAChR-C (muscarinic Acetylcholine Receptor, C-type)	DRSC27441	-1.2	9.35e5	9.40e5
CG13248	DRSC11696	-0.159	8.87e5	8.63e5
CG13248	DRSC24446	-0.732	9.00e5	7.85e5
CG32204	DRSC09574	-0.327	4.65e5	7.00e5
CG32204	DRSC23663	0.0662	8.81e5	7.85e5
Orco (Odorant receptor co-receptor)	DRSC12358	0.421	9.93e5	9.11e5
Orco (Odorant receptor co-receptor)	DRSC27061	-0.062	7.96e5	8.87e5
nemy (no extended memory)	DRSC05357	0.739	8.10e5	8.36e5
nemy (no extended memory)	DRSC26532	0.596	7.91e5	8.21e5
ppk30 (pickpocket 30)	DRSC15302	0.765	6.67e5	6.82e5
ppk30 (pickpocket 30)	DRSC39594	1.23	4.75e5	6.25e5
CG17752	DRSC15262	-0.23	2.72e5	7.80e5
CG17752	DRSC26265	0.841	9.63e5	9.46e5
CG31431	DRSC14589	2.21 (active)	3.44e5	1.14e6
CG31431	DRSC39614	1.19	5.61e5	5.31e5
Nup93-2 (Nucleoporin 93kD-2)	DRSC16221	0.589	8.27e5	7.08e5
CG11857	DRSC14411	-1.6 (active)	2.59e5	5.09e5
CG31760	DRSC02590	-1.2	6.56e5	5.43e5
CG31760	DRSC27108	-0.0208	8.12e5	7.96e5
CG30340	DRSC05167	1.35	7.18e5	1.07e6
Abcd1 (ATP binding cassette subfamily D member 1)	DRSC17157	0.892	8.14e5	7.82e5
Abcd1 (ATP binding cassette subfamily D member 1)	DRSC39677	0.694	4.97e5	5.28e5
Gr59e (Gustatory receptor 59e)	DRSC04276	0.547	7.90e5	7.79e5
Gr59e (Gustatory receptor 59e)	DRSC39732	-1.33	3.61e5	3.90e5
CG3339	DRSC13821	0.0913	9.13e5	9.03e5
CG3339	DRSC15479	-1.68 (active)	4.69e5	6.37e5
CG9903	DRSC20213	-0.0342	7.43e5	8.04e5
CG9903	DRSC39657	0.426	4.35e5	5.55e5
GluRIID (Glutamate receptor IID)	DRSC16723	-1.1	2.65e5	6.04e5
GluRIID (Glutamate receptor IID)	DRSC24866	-0.41	7.94e5	8.04e5
CG2736	DRSC04314	0.134	7.25e5	7.66e5
CG2736	DRSC39898	1.9 (active)	8.21e5	6.64e5
CG8534	DRSC16439	-0.3	3.18e5	6.47e5
Ipo9 (Importin 9)	DRSC16813	1.38	4.06e5	7.96e5
Coq4 + frc	DRSC10381	-0.552	8.11e5	8.35e5
Cds (CDP-diacylglycerol synthase)	DRSC10938	-1.12	6.09e5	6.13e5
CG2938	DRSC27919	-0.524	9.00e5	8.92e5
nAChRalpha7 (nicotinic Acetylcholine Receptor alpha7)	DRSC20078	-0.769	5.98e5	7.25e5
nAChRalpha7 (nicotinic Acetylcholine Receptor alpha7)	DRSC20081	-0.653	6.72e5	6.70e5
CG15406	DRSC00420	-1.08	6.23e5	5.67e5
CG15406	DRSC28108	-1.68 (active)	9.46e5	1.09e6
Gr98a (Gustatory receptor 98a)	DRSC14719	0.331	8.26e5	6.98e5
Ctl1 (Choline transporter-like 1)	DRSC08303	-0.06	9.03e5	8.73e5
Ctl1 (Choline transporter-like 1)	DRSC39447	-1.5 (active)	4.02e5	3.08e5
CG7720	DRSC16306	0.664	8.03e5	7.46e5
CG7720	DRSC16307	-0.923	6.12e5	6.44e5
ttv (tout-velu)	DRSC07709	-0.114	7.41e5	6.96e5
ttv (tout-velu)	DRSC26088	0.941	9.98e5	9.36e5
NPFR (Neuropeptide F receptor)	DRSC12173	-0.548	8.29e5	8.19e5
CG13795	DRSC02299	-0.532	6.80e5	6.60e5
CG13795	DRSC39907	-1.98 (active)	3.71e5	4.64e5
CG9743	DRSC16552	-0.148	5.74e5	7.11e5
CG9743	DRSC28943	-0.227	8.52e5	7.44e5
Gr59c (Gustatory receptor 59c)	DRSC04185	-0.164	7.34e5	6.85e5
Pdfr (Pigment-dispersing factor receptor)	DRSC18614	-0.404	6.81e5	6.00e5
Pdfr (Pigment-dispersing factor receptor)	DRSC39789	-1.5	4.19e5	3.26e5
ifc (infertile crescent)	DRSC03549	-0.116	4.93e5	4.47e5
ifc (infertile crescent)	DRSC39666	-0.0335	4.33e5	4.94e5
CG6149	DRSC10593	-0.253	9.13e5	8.15e5
Gr22f (Gustatory receptor 22f)	DRSC00076	0.0683	7.34e5	7.67e5
Gr22f (Gustatory receptor 22f)	DRSC26841	-1.05	8.75e5	9.21e5
CG6574	DRSC16070	1.25	3.68e5	8.66e5
CG6574	DRSC39694	-0.932	3.93e5	4.11e5
CG31259	DRSC14366	-0.732	2.65e5	6.85e5
CG31259	DRSC39814	-0.524	4.23e5	4.63e5
ACXB (Adenylyl cyclase X B)	DRSC26343	-0.393	9.09e5	7.15e5
ACXB (Adenylyl cyclase X B)	DRSC39703	1.2	5.23e5	5.72e5
uzip (unzipped)	DRSC04722	-0.063	6.90e5	7.60e5
uzip (unzipped)	DRSC30045	-1.76 (active)	4.14e5	4.48e5
CG31998	DRSC17137	-0.248	7.44e5	6.18e5
CG31998	DRSC17138	3.21 (active)	6.91e5	1.04e6
Tsp42Er (Tetraspanin 42Er)	DRSC06183	-0.333	5.30e5	6.49e5
CG13384	DRSC02258	0.0698	4.41e5	5.30e5
Inx6 (Innexin 6)	DRSC20579	0.0489	7.70e5	7.24e5
Inx6 (Innexin 6)	DRSC26299	0.498	9.16e5	9.08e5
eca (eclair)	DRSC22290	-1.74 (active)	6.61e5	6.06e5
Fie (Fire exit)	DRSC08158	0.519	8.01e5	7.71e5
Fie (Fire exit)	DRSC39856	0.977	5.95e5	7.49e5
Syt1 (Synaptotagmin 1)	DRSC00158	0.214	7.33e5	8.01e5
Syt1 (Synaptotagmin 1)	DRSC00840	-0.721	4.01e5	4.58e5
Syt1 (Synaptotagmin 1)	DRSC22077	1.09	6.63e5	6.81e5
Syt1 (Synaptotagmin 1)	DRSC27456	-0.797	9.99e5	1.15e6
